The text below walks through data of publication PMC5862502, “Coordinated regulation of Arabidopsis microRNA biogenesis and red light signaling through Dicer-like 1 and phytochrome-interacting factor 4”.

No constants are given. Whether binding was seen depends on the method and setting. A result given as binding can be weak or reduced; the word gives no strength. Tags and fused reporters may be left off the sequences shown.

To fix the notation:
B1: PIF4 fragment aa 255-431, yeast two-hybrid fusion (domain or fragment, UniProt Q8W2F3 255-430)
chain: RSRAAEVHNLSERRRRDRINERMKALQELIPHCSKTDKASILDEAIDYLKSLQLQLQVMWMGSGMAAAAASAPMMFPGVQPQQFIRQIQSPVQLPRFPVMDQSAIQNNPGLVCQNPVQNQIISDRFARYIGGFPHMQAATQMQPMEMLRFSSPAGQQSQQPSSVPTKTTDGSRLDH
B2: PIF4 fragment aa 123-431, yeast two-hybrid fusion (domain or fragment, UniProt Q8W2F3 123-430)
chain: PKACPDPPPQVMPPPKFRLTNSSSGIRETEMEQYSVTTVGPSHCGSNPSQNDLDVSMSHDRSKNIEEKLNPNASSSSGGSSGCSFGKDIKEMASGRCITTDRKRKRINHTDESVSLSDAIGNKSNQRSGSNRRSRAAEVHNLSERRRRDRINERMKALQELIPHCSKTDKASILDEAIDYLKSLQLQLQVMWMGSGMAAAAASAPMMFPGVQPQQFIRQIQSPVQLPRFPVMDQSAIQNNPGLVCQNPVQNQIISDRFARYIGGFPHMQAATQMQPMEMLRFSSPAGQQSQQPSSVPTKTTDGSRLDH
B3: PIF4 fragment aa 211-431, yeast two-hybrid fusion (domain or fragment, UniProt Q8W2F3 211-430)
chain: IKEMASGRCITTDRKRKRINHTDESVSLSDAIGNKSNQRSGSNRRSRAAEVHNLSERRRRDRINERMKALQELIPHCSKTDKASILDEAIDYLKSLQLQLQVMWMGSGMAAAAASAPMMFPGVQPQQFIRQIQSPVQLPRFPVMDQSAIQNNPGLVCQNPVQNQIISDRFARYIGGFPHMQAATQMQPMEMLRFSSPAGQQSQQPSSVPTKTTDGSRLDH

The experiment has as its target two C-terminal DsRBDs of DCL1 (DCL1-RBD), yeast two-hybrid fusion (Arabidopsis). The experiment can be described thus: two-hybrid; directed; co-transformed yeast spotted on SC minus Trp and Leu, then grown on SC minus His, Trp and Leu with 5 mM 3-AT.
For the molecule B1, the binding result is “binds”.
In the case of B2 it was “binds”; in that of B3, “binds”.
